For 1 molecule, binding results are on record in publication doi:10.1101/2022.10.04.510822 (bioRxiv, 2022).

By UniProt entry, the sequences of proteins in these tests, tags left out.
UniProt O95166: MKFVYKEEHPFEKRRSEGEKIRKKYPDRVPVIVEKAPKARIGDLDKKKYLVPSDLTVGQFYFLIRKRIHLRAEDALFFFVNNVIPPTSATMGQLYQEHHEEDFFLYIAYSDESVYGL

This assay deals with HA-GABARAP (IMR90, stably expressed) (human) (UniProt O95166). Description: affinity purification with mass spectrometry.

No constants are given. Whether binding was seen depends on the method and setting. Binding seen in cells or lysates may run through a third protein. A yes stands for co-enrichment or nearness to the bait. Other partners may have been found.

B1: WSTF, endogenous in IMR90 (protein, UniProt Q9UIG0 1-1483)
chain: MAPLLGRKPFPLVKPLPGEEPLFTIPHTQEAFRTREEYEARLERYSERIWTCKSTGSSQLTHKEAWEEEQEVAELLKEEFPAWYEKLVLEMVHHNTASLEKLVDTAWLEIMTKYAVGEECDFEVGKEKMLKVKIVKIHPLEKVDEEATEKKSDGACDSPSSDKENSSQIAQDHQKKETVVKEDEGRRESINDRARRSPRKLPTSLKKGERKWAPPKFLPHKYDVKLQNEDKIISNVPADSLIRTERPPNKEIVRYFIRHNALRAGTGENAPWVVEDELVKKYSLPSKFSDFLLDPYKYMTLNPSTKRKNTGSPDRKPSKKSKTDNSSLSSPLNPKLWCHVHLKKSLSGSPLKVKNSKNSKSPEEHLEEMMKMMSPNKLHTNFHIPKKGPPAKKPGKHSDKPLKAKGRSKGILNGQKSTGNSKSPKKGLKTPKTKMKQMTLLDMAKGTQKMTRAPRNSGGTPRTSSKPHKHLPPAALHLIAYYKENKDREDKRSALSCVISKTARLLSSEDRARLPEELRSLVQKRYELLEHKKRWASMSEEQRKEYLKKKREELKKKLKEKAKERREKEMLERLEKQKRYEDQELTGKNLPAFRLVDTPEGLPNTLFGDVAMVVEFLSCYSGLLLPDAQYPITAVSLMEALSADKGGFLYLNRVLVILLQTLLQDEIAEDYGELGMKLSEIPLTLHSVSELVRLCLRRSDVQEESEGSDTDDNKDSAAFEDNEVQDEFLEKLETSEFFELTSEEKLQILTALCHRILMTYSVQDHMETRQQMSAELWKERLAVLKEENDKKRAEKQKRKEMEAKNKENGKVENGLGKTDRKKEIVKFEPQVDTEAEDMISAVKSRRLLAIQAKKEREIQEREMKVKLERQAEEERIRKHKAAAEKAFQEGIAKAKLVMRRTPIGTDRNHNRYWLFSDEVPGLFIEKGWVHDSIDYRFNHHCKDHTVSGDEDYCPRSKKANLGKNASMNTQHGTATEVAVETTTPKQGQNLWFLCDSQKELDELLNCLHPQGIRESQLKERLEKRYQDIIHSIHLARKPNLGLKSCDGNQELLNFLRSDLIEVATRLQKGGLGYVEETSEFEARVISLEKLKDFGECVIALQASVIKKFLQGFMAPKQKRRKLQSEDSAKTEEVDEEKKMVEEAKVASALEKWKTAIREAQTFSRMHVLLGMLDACIKWDMSAENARCKVCRKKGEDDKLILCDECNKAFHLFCLRPALYEVPDGEWQCPACQPATARRNSRGRNYTEESASEDSEDDESDEEEEEEEEEEEEEDYEVAGLRLRPRKTIRGKHSVIPPAARSGRRPGKKPHSTRRSQPKAPPVDDAEVDELVLQTKRSSRRQSLELQKCEEILHKIVKYRFSWPFREPVTRDEAEDYYDVITHPMDFQTVQNKCSCGSYRSVQEFLTDMKQVFTNAEVYNCRGSHVLSCMVKTEQCLVALLHKHLPGHPYVRRKRKKFPDRLAEDEGDSEPEAVGQSRGRRQKK
As to B1, the binding entry is listed as “binds”.
